In test [1] the target is HA-HSC70 (UniProt P11142). The test can be described thus: co-IP; both proteins tagged and overproduced in transfected cells (HEK293T); immunoprecipitation by the tag, immunoblot; lysis buffer 200 mM NaCl, 1 mM EDTA, 20 mM Tris (pH 7.5), 0.5% NP-40. In general terms: In western blotting, separated proteins are transferred to a membrane and probed.
The target in test [2] is HA-HSC70 (UniProt P11142). As to the kind of experiment: co-IP; tagged bait overproduced in transfected HEK293T cells, partner endogenous; lysis buffer 200 mM NaCl, 1 mM EDTA, 20 mM Tris (pH 7.5), 0.5% NP-40; for Lamp2a (Fig. 3I, 6I) cells treated with 10 μM CQ for 3 h.
Test [3] addresses Ubc9 (endogenous) (human (endogenous in HEK293T)) (UniProt P63279). As to the kind of experiment: co-IP; both proteins endogenous, from cell lysates; lysis buffer 200 mM NaCl, 1 mM EDTA, 20 mM Tris (pH 7.5), 0.5% NP-40.
The target in test [4] is lysosome-associated membrane protein type 2a (endogenous) (human (endogenous in HEK293T)) (UniProt P13473). Described as above.
For test [5], the target named is HA-HSC70 (UniProt P11142). As to the kind of experiment: co-IP; tagged bait overproduced in transfected HEK293T cells, partner endogenous; lysis buffer 200 mM NaCl, 1 mM EDTA, 20 mM Tris (pH 7.5), 0.5% NP-40; for Lamp2a (Fig. 3I, 6I) cells treated with 10 μM CQ for 3 h. This is another data set of the same source.
The next test deals with Flag-Ubc9 (UniProt P63279). As to the kind of experiment: co-IP; both proteins tagged and overproduced in transfected cells (HEK293T); immunoprecipitation by the tag, immunoblot; lysis buffer 200 mM NaCl, 1 mM EDTA, 20 mM Tris (pH 7.5), 0.5% NP-40.
Another test has as its target GST-HSC70 (UniProt P11142). As to the kind of experiment: pull-down; recombinant GST fusion protein incubated with lysates of transfected cells, GST pull-down, immunoblot; in Fig. 3D also lysates of cells treated with 100 μM GA for 24 h; only the target purified.
Another test has as its target GST-Ubc9 (UniProt P63279). Described as above.
Test [6] has as its target HA-HSC70 (UniProt P11142). As to the kind of experiment: co-IP; both proteins tagged and overproduced in transfected cells (HEK293T); immunoprecipitation by the tag, immunoblot; lysis buffer 200 mM NaCl, 1 mM EDTA, 20 mM Tris (pH 7.5), 0.5% NP-40. This is another data set of the same source.
In a further test the target is HA-Lamp2a (UniProt P13473). The description is as above.

Protein sequences, listed by entry. Tags and fused reporters are not part of them. Residues count along the entry.
UniProt P11142: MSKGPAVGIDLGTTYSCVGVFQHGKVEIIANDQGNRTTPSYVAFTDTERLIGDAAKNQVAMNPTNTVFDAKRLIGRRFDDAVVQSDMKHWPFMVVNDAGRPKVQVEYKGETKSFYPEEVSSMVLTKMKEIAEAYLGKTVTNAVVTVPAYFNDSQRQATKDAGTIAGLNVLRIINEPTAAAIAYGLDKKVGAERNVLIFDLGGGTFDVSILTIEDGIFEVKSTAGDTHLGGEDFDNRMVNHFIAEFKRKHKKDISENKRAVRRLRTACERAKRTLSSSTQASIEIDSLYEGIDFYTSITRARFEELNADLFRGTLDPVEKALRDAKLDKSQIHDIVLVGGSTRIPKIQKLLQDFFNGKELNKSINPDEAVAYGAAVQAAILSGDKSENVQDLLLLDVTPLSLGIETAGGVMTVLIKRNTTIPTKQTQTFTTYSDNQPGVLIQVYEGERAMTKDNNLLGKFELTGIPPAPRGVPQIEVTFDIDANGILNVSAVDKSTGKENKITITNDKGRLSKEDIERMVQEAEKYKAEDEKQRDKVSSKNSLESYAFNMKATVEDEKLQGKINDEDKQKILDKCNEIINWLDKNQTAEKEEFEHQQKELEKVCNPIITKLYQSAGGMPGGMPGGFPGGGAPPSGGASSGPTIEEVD
UniProt P63279: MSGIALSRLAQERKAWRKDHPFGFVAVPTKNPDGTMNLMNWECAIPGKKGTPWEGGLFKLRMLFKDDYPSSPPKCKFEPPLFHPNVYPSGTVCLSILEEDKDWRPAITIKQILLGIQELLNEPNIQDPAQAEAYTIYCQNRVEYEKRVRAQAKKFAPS
UniProt P13473, residues 29-410: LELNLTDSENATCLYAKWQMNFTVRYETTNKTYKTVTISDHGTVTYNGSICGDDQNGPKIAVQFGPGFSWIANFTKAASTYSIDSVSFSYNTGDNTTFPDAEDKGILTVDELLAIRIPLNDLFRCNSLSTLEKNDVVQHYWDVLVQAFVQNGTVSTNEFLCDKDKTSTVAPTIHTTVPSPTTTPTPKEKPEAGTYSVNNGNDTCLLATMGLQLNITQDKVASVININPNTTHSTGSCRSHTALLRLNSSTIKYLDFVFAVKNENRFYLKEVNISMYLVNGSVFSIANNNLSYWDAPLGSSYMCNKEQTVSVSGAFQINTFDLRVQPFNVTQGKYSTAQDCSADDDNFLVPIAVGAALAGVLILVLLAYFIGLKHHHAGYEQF
UniProt P14618: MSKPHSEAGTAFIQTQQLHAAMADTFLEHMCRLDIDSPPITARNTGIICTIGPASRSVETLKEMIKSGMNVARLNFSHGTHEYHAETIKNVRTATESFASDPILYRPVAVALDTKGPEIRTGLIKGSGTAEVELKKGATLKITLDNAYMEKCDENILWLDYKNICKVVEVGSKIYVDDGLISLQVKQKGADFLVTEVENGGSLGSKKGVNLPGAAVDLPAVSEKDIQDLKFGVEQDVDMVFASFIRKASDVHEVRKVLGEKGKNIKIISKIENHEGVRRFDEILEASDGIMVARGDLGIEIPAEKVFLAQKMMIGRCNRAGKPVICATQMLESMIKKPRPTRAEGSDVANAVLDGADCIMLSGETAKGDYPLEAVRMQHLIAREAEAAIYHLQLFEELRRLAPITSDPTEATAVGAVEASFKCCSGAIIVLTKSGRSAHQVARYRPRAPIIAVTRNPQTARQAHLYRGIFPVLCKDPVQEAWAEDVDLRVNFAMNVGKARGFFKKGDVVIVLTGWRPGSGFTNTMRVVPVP

Changes are numbered by the printed parent chain. Names and notes keep the numbering of the source. Results are given in words; binding and its absence hold for the method and conditions named. Binding seen in cells or lysates may run through a third protein. Some results given as binding are weak or reduced against the parent protein; the word gives no strength. For part of these data: Tags and fused reporters may be left off the sequences shown.

For 7 molecules, binding results are on record in publication PMC12240075.

Turning to Flag-PKM2 (from UniProt P14618 1-531), in the test with HA-HSC70 [1], the binding result is reported as “binds”. Turning to “pyruvate kinase M2 (endogenous) (from UniProt P14618 1-531)”, in the test with HA-HSC70 [2], the binding result is “binds”.

B1: O-GlcNAcase (endogenous) (protein, UniProt O60502 1-916)
chain: MVQKESQATLEERESELSSNPAASAGASLEPPAAPAPGEDNPAGAGGAAVAGAAGGARRFLCGVVEGFYGRPWVMEQRKELFRRLQKWELNTYLYAPKDDYKHRMFWREMYSVEEAEQLMTLISAAREYEIEFIYAISPGLDITFSNPKEVSTLKRKLDQVSQFGCRSFALLFDDIDHNMCAADKEVFSSFAHAQVSITNEIYQYLGEPETFLFCPTEYCGTFCYPNVSQSPYLRTVGEKLLPGIEVLWTGPKVVSKEIPVESIEEVSKIIKRAPVIWDNIHANDYDQKRLFLGPYKGRSTELIPRLKGVLTNPNCEFEANYVAIHTLATWYKSNMNGVRKDVVMTDSEDSTVSIQIKLENEGSDEDIETDVLYSPQMALKLALTEWLQEFGVPHQYSSRQVAHSGAKASVVDGTPLVAAPSLNATTVVTTVYQEPIMSQGAALSGEPTTLTKEEEKKQPDEEPMDMVVEKQEETDHKNDNQILSEIVEAKMAEELKPMDTDKESIAESKSPEMSMQEDCISDIAPMQTDEQTNKEQFVPGPNEKPLYTAEPVTLEDLQLLADLFYLPYEHGPKGAQMLREFQWLRANSSVVSVNCKGKDSEKIEEWRSRAAKFEEMCGLVMGMFTRLSNCANRTILYDMYSYVWDIKSIMSMVKSFVQWLGCRSHSSAQFLIGDQEPWAFRGGLAGEFQRLLPIDGANDLFFQPPPLTPTSKVYTIRPYFPKDEASVYKICREMYDDGVGLPFQSQPDLIGDKLVGGLLSLSLDYCFVLEDEDGICGYALGTVDVTPFIKKCKISWIPFMQEKYTKPNGDKELSEAEKIMLSFHEEQEVLPETFLANFPSLIKMDIHKKVTDPSVAKSMMACLLSSLKANGSRGAFCEVRPDDKRILEFYSKLGCFEIAKMEGFPKDVVILGRSL
As for B1, the binding entry (in [3]; in test [4]; with HA-HSC70 [5]) was “binds” each time.

B2: HA-OGA-WT (protein, UniProt O60502 1-916)
chain: B1 chain
Regarding B2, the binding result with Flag-Ubc9, in the test with GST-HSC70 and with GST-Ubc9 was “binds” throughout.

B3: Flag-OGA (protein, UniProt O60502 1-916)
chain: B1 chain
As for B3, the binding entry with HA-HSC70 [6] and in the test with HA-Lamp2a was “binds” each time.

B4: HA-OGA-Q356A/E360A (protein, UniProt O60502 1-916)
chain: B1 chain with Q356A, E360A
Consider B4, for which, in the test with GST-HSC70, the binding entry is recorded as “binds”.

B5: HA-OGA-K358R (protein, UniProt O60502 1-916)
chain: B1 chain with K358R
In the case of B5, the binding result in the test with GST-HSC70 is reported as “binds”.
